Experimental findings from paper PMC7819943, “Rice protein-binding microarrays: a tool to detect cis-acting elements near promoter regions in rice” are described below.

Sequences of proteins named here, by UniProt entry; tags and fusion partners are left off.
UniProt Q0JBA9, entry or part of it: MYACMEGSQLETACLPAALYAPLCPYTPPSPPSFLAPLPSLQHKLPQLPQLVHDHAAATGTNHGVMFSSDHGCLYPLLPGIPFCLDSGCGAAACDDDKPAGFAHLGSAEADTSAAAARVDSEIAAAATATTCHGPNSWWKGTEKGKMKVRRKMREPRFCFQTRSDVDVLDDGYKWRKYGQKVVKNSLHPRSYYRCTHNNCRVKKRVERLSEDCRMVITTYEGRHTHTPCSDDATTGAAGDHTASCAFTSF

The list shows a part of the results.

This experiment has as its target OsWRKY34 (Oryza sativa, UniProt Q0JBA9 1-250). The experiment in a line: protein-binding microarray (RPBM); PBS, 2% BSA, 51.3 ng/ul salmon testes DNA, 50 uM zinc acetate, 200 nM TF, 25 C, 1 h; high values mean tight binding. The settings on record: protein: recombinant; tags: N-terminal polyhistidine and DsRed monomer fusion (pET32a); label: CyDye5-dUTP incorporated in the synthesized complementary strand; 3' TTTTT single-stranded linker to array surface; dsDNA, one strand shown. A digest of the protocol:
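Per-feature fluorescence intensity (arbitrary units), read on an Axon 4000B scanner, is the binding signal. Transcription factors carrying an N-terminal polyhistidine tag and DsRed fusion were expressed in E. coli BL21-CodonPlus and purified on Ni–NTA. A custom Agilent array, made double-stranded by primer extension with Cy5-dUTP and blocked with 2% BSA, was incubated with 200 nM protein in PBS, 2% BSA, salmon testes DNA and 50 µM zinc acetate at 25 °C for 1 h and then washed.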
With “TATGCCAACAGTAACAGTGCATCTCGTCTATGTATCTTCTCGGAGTCACCTAGTGCAG”, the binding signal is 9620 fluorescence intensity (a.u.). As for “TGGTTTGGGTTGTCACTTTTGGCAGAGCCTCTGTCCGGGACGGAGTCACCTAGTGCAG”, the binding signal is 8090 fluorescence intensity (a.u.). The figure for “ATGGCTCGGGGTAATACTGAATAGTGGTCCATCCTTTTTTCGGAGTCACCTAGTGCAG” is 8160 fluorescence intensity (a.u.); for “CATCTTCCGCCCGCGCGTATCCCACACGATCGCGCGCGGGCGGAGTCACCTAGTGCAG” it is 8700 fluorescence intensity (a.u.).

Turning to “CAAGTGCATTTCCTCCCGATTCACCTTCAGATTTTGTTCTCGGAGTCACCTAGTGCAG”, the binding signal is 10300 fluorescence intensity (a.u.). As to “CGGCGCCCTATCCTTATCTCCTCGTTTTTCCCGATCAATTCGGAGTCACCTAGTGCAG”, the binding signal was 11100 fluorescence intensity (a.u.). Turning to “CATCCTAGCCCATTTTCATTCACTCAGATGGTCCCACATGCGGAGTCACCTAGTGCAG”, the binding signal was 8280 fluorescence intensity (a.u.). Take “AGCACCCTTGGTCTACACATTATTATTGCACACTATTCAACGGAGTCACCTAGTGCAG”: the binding signal is 8070 fluorescence intensity (a.u.). For “AGGAGCTAGTTGGGGTGGTGTGCGCTGCGGCGAAGAGAGTCGGAGTCACCTAGTGCAG”, the binding signal was 8280 fluorescence intensity (a.u.). “AATATTTTTGCTTACGGTTCGCCTTGTCGTCTTGGTATTGCGGAGTCACCTAGTGCAG”: the binding signal was 13600 fluorescence intensity (a.u.). “ATGTATCTCTTGTATAGCCGCCATCCGGCCTACCCAGAATCGGAGTCACCTAGTGCAG”: the binding signal is 11500 fluorescence intensity (a.u.).

For the sequence “AATGCTGTACAGATTACGGCTCATAATTTCTACCGCTGATCGGAGTCACCTAGTGCAG”, the binding signal was 8200 fluorescence intensity (a.u.). Consider “AACTCTCCTACACACATAAACTTCCAACTTTTCCGTCACACGGAGTCACCTAGTGCAG”, for which the binding signal is 10000 fluorescence intensity (a.u.). In the case of “AGCATATCAGCCACTCTTTCTTCTTTGTCTTTATCAACTCCGGAGTCACCTAGTGCAG”, the binding signal was 8250 fluorescence intensity (a.u.). “GCGGGCCACCCATGTCATAGACTACCTATCTATCCGCTTTCGGAGTCACCTAGTGCAG”: the binding signal was 8770 fluorescence intensity (a.u.). In the case of “CGACCACCACCACCACCACGCCGCGGCATCCACAACGCCACGGAGTCACCTAGTGCAG”, the binding signal was 8210 fluorescence intensity (a.u.). For the sequence “TTATACTATTCATCTCCAACGTTTAACCGTTCATTTTATTCGGAGTCACCTAGTGCAG”, the binding signal is 9000 fluorescence intensity (a.u.).

As to “TGCAGGTCTCTCTCATCATCTCATGATCGATTAGGTCTTCCGGAGTCACCTAGTGCAG”, the binding signal is 8870 fluorescence intensity (a.u.). As for “CCACACTTGCCCGCTACCCACTCTGATCTATCTCCACTGTCGGAGTCACCTAGTGCAG”, the binding signal was 9630 fluorescence intensity (a.u.). Turning to “AACCCGAAAAGCTGCCGTCGCCTCGTCTCGTCGCCCCGAACGGAGTCACCTAGTGCAG”, the binding signal was 10100 fluorescence intensity (a.u.).

Regarding “TCTACTCCTTGCTCTGTAGCCACCACATCTTGGATGAATCCGGAGTCACCTAGTGCAG”, the binding signal is 9590 fluorescence intensity (a.u.). With “AATACATCTCCATCTCTTACACTCTCCTACTACCTACCTCCGGAGTCACCTAGTGCAG”, the binding signal was 10100 fluorescence intensity (a.u.). For the sequence “CTTTTTCATATATTTTTTTCCGTTACAACACACATAAACTCGGAGTCACCTAGTGCAG”, the binding signal was 11100 fluorescence intensity (a.u.). Take “CCTGGGTAGTGGGGACCGTAGATGCGCCGTCGGACGGCCGCGGAGTCACCTAGTGCAG”: the binding signal is 8690 fluorescence intensity (a.u.). The same measure for “TGACTGTATTTTAATGGTATTTGTTGATTTTTTTTAAAAACGGAGTCACCTAGTGCAG”: 8390 fluorescence intensity (a.u.). With “GCACTAATGTTTTTTTTCTTGTTTTGTGTAAGTAATCTGACGGAGTCACCTAGTGCAG”, the binding signal is 11900 fluorescence intensity (a.u.). As to “CCCGAGTTTTTCCCGTCGTTTTGGGCCCGGACCCGAGCTTCGGAGTCACCTAGTGCAG”, the binding signal was 10700 fluorescence intensity (a.u.). “GGCTGGTTTTTTTTTTTTTGTGAGGTCCAAGGTCACACACCGGAGTCACCTAGTGCAG”: the binding signal was 10800 fluorescence intensity (a.u.). Take “CCGCGATGTCTTCCGCTCCGCCGCCGCCGCGGTCGCCGGCCGGAGTCACCTAGTGCAG”: the binding signal is 8620 fluorescence intensity (a.u.). For the sequence “TGATGTTACTTTGATTTGGGGTTTGATTTGGGAATATGCACGGAGTCACCTAGTGCAG”, the binding signal is 13500 fluorescence intensity (a.u.). With “CTCACCAAAACGACCTTTTTGTGCTTGTCCTGCCTGCTTCCGGAGTCACCTAGTGCAG”, the binding signal was 8820 fluorescence intensity (a.u.). Turning to “AGAGCTAGGGTTTGGGTAATTTGGCGAGCGAGGAGCGAGGCGGAGTCACCTAGTGCAG”, the binding signal was 8260 fluorescence intensity (a.u.). The same measure for “TATTTGTCTGTGGTTTCGTGTTCTGATAAATATTTGTTTCCGGAGTCACCTAGTGCAG”: 10300 fluorescence intensity (a.u.); for “CATGCTCCAACTCCAATTGCAAGATAATGTTCGGATCTTTCGGAGTCACCTAGTGCAG”: 8100 fluorescence intensity (a.u.). For the sequence “AAGTGTGTGCTCTCATTCATGTGTCTACTATTAGGGTTATCGGAGTCACCTAGTGCAG”, the binding signal was 10100 fluorescence intensity (a.u.). Turning to “ATTTTAAGATGGCGTATTCACTCAACCATTACAAGTGTCACGGAGTCACCTAGTGCAG”, the binding signal is 8600 fluorescence intensity (a.u.).

Consider “GTCGTTCCGTATATATACTACATCTTTCCAGAATTCCAGTCGGAGTCACCTAGTGCAG”, for which the binding signal is 9200 fluorescence intensity (a.u.). For the sequence “GCACATTATTTCCTGTCTCTTGAGAGTCTTTGACACACACCGGAGTCACCTAGTGCAG”, the binding signal is 10300 fluorescence intensity (a.u.).

Regarding “CCCGCTGCCCATCTCTCTCTTTATTTATCTTCTTAAAATACGGAGTCACCTAGTGCAG”, the binding signal was 8950 fluorescence intensity (a.u.). The figure for “ATCTCTCTCTCTCTCTCTCACACACACCCCTAGATGAACACGGAGTCACCTAGTGCAG” is 8070 fluorescence intensity (a.u.). Take “ATATTAGATCCAAAGGAATATTCAGTTCATCTCTTTATTTCGGAGTCACCTAGTGCAG”: the binding signal is 8580 fluorescence intensity (a.u.). Consider “ATCTCCTCTTCTCTTCTTCCACCGCCGCGGCGGCTTCGCTCGGAGTCACCTAGTGCAG”, for which the binding signal is 9140 fluorescence intensity (a.u.).
